Some of the results follow.
What was measured:
Experiment in all cases: log2 fold change, soluble protein after heating vs DMSO (PISA); higher = thermal stabilisation; K562 lysate, 10 uM; active = over 0.2 and 3.5 SD of the protein, either way, in both replicates (recomputed)
alvocidib = compound: CN1CC[C@H](c2c(O)cc(O)c3c(=O)cc(-c4ccccc4Cl)oc23)[C@H](O)C1 [alvocidib]
Outline: (§1)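 Quantification was by TMTpro 16plex LC-MS/MS with equalised channel sums, applied to the supernatant after 21,000xg for 90 min. Samples were crude K562 extract at 1 mg/mL protein in PBS pH 7.4 with 1 mM MgCl2, treated with 10 μM compound for 30 min, heated for 3 min across 48°C-58°C, pooled and brought to 0.5% NP-40 at 4°C. Values are log-two fold changes in thermal stability relative to solvent controls, from duplicates.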

Amino acid sequences for entries named in this document (tags omitted). A change or cut given only in a name is not applied to a line headed by its entry.
UniProt Q8N2K0: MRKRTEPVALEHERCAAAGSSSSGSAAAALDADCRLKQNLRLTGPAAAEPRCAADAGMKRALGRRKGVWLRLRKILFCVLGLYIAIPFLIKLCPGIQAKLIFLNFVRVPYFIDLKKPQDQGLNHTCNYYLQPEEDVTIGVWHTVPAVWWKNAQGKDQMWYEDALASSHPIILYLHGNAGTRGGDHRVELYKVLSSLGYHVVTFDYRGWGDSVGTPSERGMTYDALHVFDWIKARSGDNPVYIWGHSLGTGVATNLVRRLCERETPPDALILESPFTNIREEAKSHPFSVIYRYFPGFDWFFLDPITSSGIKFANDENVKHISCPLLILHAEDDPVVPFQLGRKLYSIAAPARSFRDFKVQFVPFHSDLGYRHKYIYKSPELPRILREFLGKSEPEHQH
UniProt Q9NYB9: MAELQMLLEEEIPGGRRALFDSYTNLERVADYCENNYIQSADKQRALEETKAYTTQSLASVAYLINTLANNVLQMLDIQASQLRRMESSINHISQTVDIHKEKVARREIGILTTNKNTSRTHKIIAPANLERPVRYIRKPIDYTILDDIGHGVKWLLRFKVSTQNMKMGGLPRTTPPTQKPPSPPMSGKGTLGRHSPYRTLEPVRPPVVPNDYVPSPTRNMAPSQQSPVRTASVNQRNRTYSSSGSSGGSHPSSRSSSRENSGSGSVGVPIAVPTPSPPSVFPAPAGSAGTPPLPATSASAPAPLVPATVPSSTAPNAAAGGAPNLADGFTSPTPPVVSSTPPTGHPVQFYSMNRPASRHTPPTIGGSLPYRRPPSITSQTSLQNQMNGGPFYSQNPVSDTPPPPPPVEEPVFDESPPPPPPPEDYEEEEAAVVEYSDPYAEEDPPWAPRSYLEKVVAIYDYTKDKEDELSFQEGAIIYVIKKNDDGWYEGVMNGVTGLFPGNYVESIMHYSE
UniProt O14639: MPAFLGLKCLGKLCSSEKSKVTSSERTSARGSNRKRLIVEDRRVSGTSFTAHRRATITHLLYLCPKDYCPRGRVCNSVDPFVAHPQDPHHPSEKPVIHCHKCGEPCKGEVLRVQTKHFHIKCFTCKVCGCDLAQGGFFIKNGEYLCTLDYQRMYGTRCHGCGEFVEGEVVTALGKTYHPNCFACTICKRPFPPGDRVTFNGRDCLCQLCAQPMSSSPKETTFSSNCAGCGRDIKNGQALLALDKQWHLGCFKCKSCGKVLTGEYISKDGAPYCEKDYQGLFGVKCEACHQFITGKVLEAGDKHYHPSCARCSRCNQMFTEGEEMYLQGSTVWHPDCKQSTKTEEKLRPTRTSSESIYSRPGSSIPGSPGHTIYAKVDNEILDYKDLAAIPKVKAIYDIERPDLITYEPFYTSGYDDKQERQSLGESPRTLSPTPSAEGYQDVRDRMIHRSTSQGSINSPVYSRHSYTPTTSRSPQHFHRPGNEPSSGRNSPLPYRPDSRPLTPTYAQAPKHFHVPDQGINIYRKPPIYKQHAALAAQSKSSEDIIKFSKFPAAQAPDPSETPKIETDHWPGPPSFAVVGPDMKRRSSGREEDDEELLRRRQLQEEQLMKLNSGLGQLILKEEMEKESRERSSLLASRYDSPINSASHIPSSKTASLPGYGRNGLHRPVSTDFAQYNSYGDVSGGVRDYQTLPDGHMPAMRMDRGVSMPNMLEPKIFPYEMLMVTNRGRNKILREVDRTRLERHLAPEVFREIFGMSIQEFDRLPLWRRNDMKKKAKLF
UniProt Q9H845: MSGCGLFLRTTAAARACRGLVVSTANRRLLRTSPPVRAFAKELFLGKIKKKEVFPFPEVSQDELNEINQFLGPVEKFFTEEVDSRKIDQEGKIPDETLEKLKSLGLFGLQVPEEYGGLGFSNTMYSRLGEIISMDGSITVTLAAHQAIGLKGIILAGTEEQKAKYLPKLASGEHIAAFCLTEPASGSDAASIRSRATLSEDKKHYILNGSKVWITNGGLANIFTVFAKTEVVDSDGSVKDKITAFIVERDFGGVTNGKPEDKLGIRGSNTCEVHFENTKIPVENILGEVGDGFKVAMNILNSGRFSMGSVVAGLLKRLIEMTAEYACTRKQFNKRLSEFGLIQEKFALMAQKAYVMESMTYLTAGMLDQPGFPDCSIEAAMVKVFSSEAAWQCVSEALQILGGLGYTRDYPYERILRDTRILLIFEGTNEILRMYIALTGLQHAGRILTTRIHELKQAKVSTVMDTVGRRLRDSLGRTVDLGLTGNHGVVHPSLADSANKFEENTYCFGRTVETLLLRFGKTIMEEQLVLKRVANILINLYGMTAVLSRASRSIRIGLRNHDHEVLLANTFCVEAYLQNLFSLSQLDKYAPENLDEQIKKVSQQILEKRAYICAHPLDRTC
UniProt P28288: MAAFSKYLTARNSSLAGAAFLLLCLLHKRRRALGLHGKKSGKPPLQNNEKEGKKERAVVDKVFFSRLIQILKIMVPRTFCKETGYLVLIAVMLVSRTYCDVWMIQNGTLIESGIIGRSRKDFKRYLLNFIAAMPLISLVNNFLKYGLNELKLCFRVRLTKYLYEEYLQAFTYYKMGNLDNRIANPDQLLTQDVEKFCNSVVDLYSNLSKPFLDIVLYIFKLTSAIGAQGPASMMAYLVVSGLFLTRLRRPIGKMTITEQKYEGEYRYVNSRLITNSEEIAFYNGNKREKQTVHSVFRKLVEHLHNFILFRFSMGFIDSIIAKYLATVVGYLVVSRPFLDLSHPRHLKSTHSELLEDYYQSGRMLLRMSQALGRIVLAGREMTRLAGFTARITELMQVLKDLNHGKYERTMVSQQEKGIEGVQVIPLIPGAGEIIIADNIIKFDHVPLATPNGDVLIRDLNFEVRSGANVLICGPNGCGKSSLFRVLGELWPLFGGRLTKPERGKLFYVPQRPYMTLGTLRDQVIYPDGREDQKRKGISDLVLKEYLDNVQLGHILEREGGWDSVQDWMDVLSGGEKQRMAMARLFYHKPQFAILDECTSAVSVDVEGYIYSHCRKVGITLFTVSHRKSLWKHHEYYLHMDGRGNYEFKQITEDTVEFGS
UniProt Q9BWD1: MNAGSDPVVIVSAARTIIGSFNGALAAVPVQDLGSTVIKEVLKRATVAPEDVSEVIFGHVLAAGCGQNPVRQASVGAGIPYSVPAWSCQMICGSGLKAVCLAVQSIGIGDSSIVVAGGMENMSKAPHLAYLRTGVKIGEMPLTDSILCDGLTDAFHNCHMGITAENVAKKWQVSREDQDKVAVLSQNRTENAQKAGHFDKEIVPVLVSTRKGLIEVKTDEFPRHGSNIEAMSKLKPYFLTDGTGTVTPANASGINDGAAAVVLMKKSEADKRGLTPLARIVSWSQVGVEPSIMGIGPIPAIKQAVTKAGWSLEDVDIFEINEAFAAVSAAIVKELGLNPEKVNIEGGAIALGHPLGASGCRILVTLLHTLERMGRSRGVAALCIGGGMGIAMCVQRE
UniProt Q8IZP0: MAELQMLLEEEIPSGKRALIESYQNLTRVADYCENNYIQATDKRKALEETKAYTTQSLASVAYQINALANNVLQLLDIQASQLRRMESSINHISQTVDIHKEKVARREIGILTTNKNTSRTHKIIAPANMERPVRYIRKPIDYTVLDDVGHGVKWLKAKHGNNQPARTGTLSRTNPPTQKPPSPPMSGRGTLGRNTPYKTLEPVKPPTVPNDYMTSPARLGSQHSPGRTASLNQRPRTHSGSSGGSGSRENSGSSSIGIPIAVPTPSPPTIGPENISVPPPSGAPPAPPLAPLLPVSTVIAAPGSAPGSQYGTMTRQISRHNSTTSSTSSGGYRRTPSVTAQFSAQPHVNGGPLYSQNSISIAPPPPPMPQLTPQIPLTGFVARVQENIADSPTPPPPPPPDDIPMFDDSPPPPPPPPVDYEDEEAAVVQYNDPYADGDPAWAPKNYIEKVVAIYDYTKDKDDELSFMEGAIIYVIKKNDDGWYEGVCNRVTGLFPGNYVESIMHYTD
UniProt Q9NRG9: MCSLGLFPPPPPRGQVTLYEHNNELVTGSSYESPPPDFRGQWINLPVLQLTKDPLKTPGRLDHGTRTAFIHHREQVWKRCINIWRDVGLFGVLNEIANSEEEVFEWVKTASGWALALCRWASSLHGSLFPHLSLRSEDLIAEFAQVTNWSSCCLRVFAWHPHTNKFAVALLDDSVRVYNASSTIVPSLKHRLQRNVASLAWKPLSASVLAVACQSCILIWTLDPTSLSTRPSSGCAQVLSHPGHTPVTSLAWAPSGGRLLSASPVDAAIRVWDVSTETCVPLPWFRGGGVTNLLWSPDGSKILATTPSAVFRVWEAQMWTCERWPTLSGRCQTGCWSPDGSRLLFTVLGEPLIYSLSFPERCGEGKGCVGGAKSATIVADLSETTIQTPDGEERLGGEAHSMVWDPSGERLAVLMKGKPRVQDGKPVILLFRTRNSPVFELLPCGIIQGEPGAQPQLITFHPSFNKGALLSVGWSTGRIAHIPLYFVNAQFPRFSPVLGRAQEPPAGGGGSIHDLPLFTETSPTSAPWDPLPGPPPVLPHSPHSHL
UniProt Q9UKV3: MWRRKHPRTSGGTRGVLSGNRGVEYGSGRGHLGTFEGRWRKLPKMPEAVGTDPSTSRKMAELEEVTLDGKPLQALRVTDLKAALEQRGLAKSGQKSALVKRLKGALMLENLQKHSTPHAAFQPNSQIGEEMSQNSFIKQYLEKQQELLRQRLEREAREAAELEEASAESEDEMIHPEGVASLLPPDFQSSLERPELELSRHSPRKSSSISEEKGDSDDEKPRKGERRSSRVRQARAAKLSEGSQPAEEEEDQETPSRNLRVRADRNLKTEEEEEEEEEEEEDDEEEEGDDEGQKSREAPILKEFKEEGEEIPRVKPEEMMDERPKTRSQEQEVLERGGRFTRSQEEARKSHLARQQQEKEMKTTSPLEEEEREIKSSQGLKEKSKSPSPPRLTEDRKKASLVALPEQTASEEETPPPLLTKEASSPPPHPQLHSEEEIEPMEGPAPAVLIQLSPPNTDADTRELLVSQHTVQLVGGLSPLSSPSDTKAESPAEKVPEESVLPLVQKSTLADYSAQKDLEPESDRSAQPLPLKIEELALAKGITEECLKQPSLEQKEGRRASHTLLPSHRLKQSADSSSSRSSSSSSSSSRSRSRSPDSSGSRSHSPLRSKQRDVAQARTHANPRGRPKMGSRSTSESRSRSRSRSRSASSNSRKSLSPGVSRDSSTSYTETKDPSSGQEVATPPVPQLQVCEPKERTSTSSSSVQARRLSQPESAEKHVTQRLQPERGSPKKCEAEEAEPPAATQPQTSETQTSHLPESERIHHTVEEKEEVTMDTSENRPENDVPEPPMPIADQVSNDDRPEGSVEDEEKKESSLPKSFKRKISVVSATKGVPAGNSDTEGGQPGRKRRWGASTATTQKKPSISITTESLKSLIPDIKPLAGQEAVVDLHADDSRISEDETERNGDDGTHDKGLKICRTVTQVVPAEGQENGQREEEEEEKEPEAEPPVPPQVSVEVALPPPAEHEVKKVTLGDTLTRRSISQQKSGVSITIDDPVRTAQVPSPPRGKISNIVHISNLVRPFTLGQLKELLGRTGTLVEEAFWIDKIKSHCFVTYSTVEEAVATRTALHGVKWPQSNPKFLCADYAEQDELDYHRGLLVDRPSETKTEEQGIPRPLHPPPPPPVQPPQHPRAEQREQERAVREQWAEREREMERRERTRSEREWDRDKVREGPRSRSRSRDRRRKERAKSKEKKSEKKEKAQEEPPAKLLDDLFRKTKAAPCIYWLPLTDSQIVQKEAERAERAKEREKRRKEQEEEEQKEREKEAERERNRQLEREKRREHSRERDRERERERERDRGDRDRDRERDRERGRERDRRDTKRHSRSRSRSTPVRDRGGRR
UniProt Q5VST6: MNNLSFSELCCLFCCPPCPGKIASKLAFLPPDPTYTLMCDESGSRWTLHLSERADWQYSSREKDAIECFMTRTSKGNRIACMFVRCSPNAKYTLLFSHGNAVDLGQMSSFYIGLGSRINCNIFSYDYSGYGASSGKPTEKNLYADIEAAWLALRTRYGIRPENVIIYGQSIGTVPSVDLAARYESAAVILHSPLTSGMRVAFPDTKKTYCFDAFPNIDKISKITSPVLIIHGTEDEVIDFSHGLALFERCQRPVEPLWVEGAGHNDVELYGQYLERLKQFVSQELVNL
UniProt Q6PD74: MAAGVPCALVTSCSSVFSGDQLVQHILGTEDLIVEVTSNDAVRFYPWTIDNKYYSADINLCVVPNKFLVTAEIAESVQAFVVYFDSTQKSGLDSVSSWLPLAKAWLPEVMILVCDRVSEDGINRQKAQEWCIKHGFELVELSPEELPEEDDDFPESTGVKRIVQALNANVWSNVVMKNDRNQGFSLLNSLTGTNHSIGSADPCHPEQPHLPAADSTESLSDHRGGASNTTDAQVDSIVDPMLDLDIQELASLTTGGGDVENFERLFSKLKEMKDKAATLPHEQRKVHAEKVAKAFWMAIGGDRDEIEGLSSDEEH

Tubastatin A = compound: CN1CCc2c(c3ccccc3n2Cc2ccc(C(=O)NO)cc2)C1 [Tubastatin A]
Outline: as §1

[1] = compound: CNC(=O)C1=CC=CC=C1NC2=NC(=NC=C2Cl)NC3=C(C=C(C=C3)N4CCOCC4)OC
Outline: as §1

defactinib = compound: CNC(=O)c1ccc(Nc2ncc(C(F)(F)F)c(NCc3nccnc3N(C)S(C)(=O)=O)n2)cc1 [defactinib]
Outline: as §1

[2] = compound: CNc1nc(-c2ccc3c(N)n[nH]c3c2)cc(N2C[C@@H](C(=O)NC3CCCCC3)CC[C@H]2C)n1
Outline: as §1

encorafenib = compound: COC(=O)N[C@@H](C)CNc1nccc(-c2cn(C(C)C)nc2-c2cc(Cl)cc(NS(C)(=O)=O)c2F)n1 [encorafenib]
Outline: as §1

[3] = compound: COC(=O)[C@H](CCSC)NC(=O)C1=C(C=C(C=C1)NC[C@H](CS)N)C2=CC=CC=C2
Outline: as §1

alisertib = compound: COc1cc(Nc2ncc3c(n2)-c2ccc(Cl)cc2C(c2c(F)cccc2OC)=NC3)ccc1C(=O)O [alisertib]
Outline: as §1

[4] = compound: COc1cc2nc(-c3cc(F)ccc3O)nc(N[C@@H]3CNC[C@H]3C(C)(C)O)c2cc1OC
Outline: as §1

gefitinib = compound: COc1cc2ncnc(Nc3ccc(F)c(Cl)c3)c2cc1OCCCN1CCOCC1 [gefitinib]
Outline: as §1

lapatinib = compound: CS(=O)(=O)CCNCc1ccc(-c2ccc3ncnc(Nc4ccc(OCc5cccc(F)c5)c(Cl)c4)c3c2)o1 [lapatinib]
Outline: as §1

pictilisib = compound: CS(=O)(=O)N1CCN(Cc2cc3nc(-c4cccc5[nH]ncc45)nc(N4CCOCC4)c3s2)CC1 [pictilisib]
Outline: as §1

crizotinib = compound: C[C@@H](Oc1cc(-c2cnn(C3CCNCC3)c2)cnc1N)c1c(Cl)ccc(F)c1Cl [crizotinib]
Outline: as §1

[5] = compound: C[C@H](C1=CC=C(C=C1)C(=O)NC2=C3C=CNC3=NC=C2)N
Outline: as §1

duvelisib = compound: C[C@H](Nc1ncnc2nc[nH]c12)c1cc2cccc(Cl)c2c(=O)n1-c1ccccc1 [duvelisib]
Outline: as §1

gandotinib = compound: Cc1cc(Nc2cc(CN3CCOCC3)c3nc(C)c(Cc4ccc(Cl)cc4F)n3n2)n[nH]1 [gandotinib]
Outline: as §1

tozasertib = compound: Cc1cc(Nc2cc(N3CCN(C)CC3)nc(Sc3ccc(NC(=O)C4CC4)cc3)n2)n[nH]1 [tozasertib]
Outline: as §1

doramapimod = compound: Cc1ccc(-n2nc(C(C)(C)C)cc2NC(=O)Nc2ccc(OCCN3CCOCC3)c3ccccc23)cc1 [doramapimod]
Outline: as §1

bafetinib = compound: Cc1ccc(NC(=O)c2ccc(CN3CC[C@H](N(C)C)C3)c(C(F)(F)F)c2)cc1Nc1nccc(-c2cncnc2)n1 [bafetinib]
Outline: as §1

[6] = compound: Cc1cccc(CC(=O)N2CCc3c2ccc(-c2cn(C)c4ncnc(N)c24)c3F)n1
Outline: as §1

| Target | log2 fold change (alvocidib) | log2 fold change (Tubastatin A) | log2 fold change [1] | log2 fold change (defactinib) | log2 fold change [2] | log2 fold change (encorafenib) | log2 fold change [3] | log2 fold change (alisertib) | log2 fold change [4] | log2 fold change (gefitinib) | log2 fold change (lapatinib) | log2 fold change (pictilisib) | log2 fold change (crizotinib) | log2 fold change [5] | log2 fold change (duvelisib) | log2 fold change (gandotinib) | log2 fold change (tozasertib) | log2 fold change (doramapimod) | log2 fold change (bafetinib) | log2 fold change [6] |
| --- | --- | --- | --- | --- | --- | --- | --- | --- | --- | --- | --- | --- | --- | --- | --- | --- | --- | --- | --- | --- |
| ABHD12 isoform 2 (UniProt Q8N2K0) | inactive: 0.02 | inactive: 0.001 | inactive: 0.039 | inactive: -0.004 | inactive: 0.003 | inactive: 0.046 | inactive: -0.018 | inactive: -0.031 | inactive: -0.03 | inactive: -0.045 | inactive: -0.006 | inactive: -0.069 | inactive: -0.04 | inactive: 0.078 | inactive: -0.057 | inactive: -0.095 | inactive: 0.06 | inactive: 0.04 | inactive: 0.062 | inactive: -0.063 |
| ABI2 (UniProt Q9NYB9) | inactive: 0.063 | inactive: 0.003 | inactive: -0.003 | inactive: 0.018 | inactive: -0.066 | inactive: 0.003 | inactive: -0.108 | inactive: -0.01 | inactive: -0.054 | inactive: 0.029 | inactive: 0.014 | inactive: 0 | inactive: 0.036 | inactive: 0.016 | inactive: 0.02 | inactive: -0.111 | inactive: 0.024 | inactive: -0.087 | inactive: -0.004 | inactive: -0.126 |
| ABLIM1 (UniProt O14639) | inactive: -0.095 | inactive: 0.058 | inactive: 0.029 | inactive: -0.045 | inactive: 0.065 | inactive: -0.069 | inactive: -0.034 | inactive: 0.093 | inactive: 0.01 | inactive: 0.009 | inactive: 0.048 | inactive: 0.042 | inactive: -0.143 | inactive: -0.121 | inactive: -0.029 | inactive: 0.155 | inactive: -0.017 | inactive: -0.013 | inactive: -0.056 | inactive: 0.181 |
| ACAD9 (UniProt Q9H845) | inactive: -0.036 | inactive: 0.025 | inactive: -0.018 | inactive: -0.002 | inactive: -0.041 | inactive: 0.022 | inactive: -0.015 | inactive: -0.019 | inactive: 0.024 | inactive: 0.022 | inactive: -0.037 | inactive: -0.015 | inactive: -0.031 | inactive: -0.033 | inactive: 0.081 | inactive: 0.083 | inactive: -0.006 | inactive: 0.065 | inactive: -0.041 | inactive: 0.035 |
| ABCD3 (UniProt P28288) | inactive: -0.064 | inactive: 0.1 | inactive: -0.114 | inactive: -0.019 | inactive: -0.048 | inactive: 0.028 | active: 0.444 | inactive: 0.044 | inactive: -0.013 | inactive: 0.145 | inactive: 0.179 | inactive: -0.019 | inactive: -0.063 | inactive: 0.014 | inactive: 0.019 | inactive: 0.079 | inactive: 0.098 | inactive: -0.002 | inactive: 0.027 | inactive: -0.006 |
| ACAT2 (UniProt Q9BWD1) | inactive: 0.027 | inactive: 0.083 | inactive: 0.002 | inactive: 0.033 | inactive: 0.065 | inactive: -0.045 | inactive: -0.021 | inactive: 0.012 | inactive: 0.006 | inactive: -0.007 | inactive: -0.031 | inactive: 0.051 | inactive: 0 | inactive: 0.004 | inactive: 0.043 | inactive: 0 | inactive: -0.028 | inactive: -0.007 | inactive: 0.037 | inactive: -0.023 |
| A0A0B4J2A0, A0A0B4J2A0 | inactive: -0.003 | inactive: -0.002 | inactive: -0.016 | inactive: 0.027 | inactive: 0.026 | inactive: 0.028 | inactive: 0.005 | inactive: -0.045 | inactive: 0.013 | inactive: 0 | inactive: 0.014 | inactive: -0.017 | inactive: -0.048 | inactive: -0.01 | inactive: 0.025 | inactive: -0.065 | inactive: -0.01 | inactive: 0.009 | inactive: -0.036 | inactive: 0.046 |
| A2M (UniProt P01023) | inactive: -0.051 | inactive: 0.01 | inactive: 0.036 | inactive: 0.003 | inactive: -0.056 | inactive: -0.024 | inactive: -0.066 | inactive: -0.021 | inactive: -0.003 | inactive: -0.019 | inactive: -0.011 | inactive: -0.019 | inactive: 0.073 | inactive: -0.064 | inactive: -0.021 | inactive: 0.006 | inactive: -0.059 | inactive: -0.105 | inactive: -0.03 | inactive: -0.01 |
| ABI1 isoform 9 (UniProt Q8IZP0) | inactive: -0.096 | inactive: 0.053 | inactive: 0.005 | inactive: -0.038 | inactive: 0.025 | inactive: 0.003 | inactive: -0.057 | inactive: -0.02 | inactive: 0.018 | inactive: -0.015 | inactive: 0.011 | inactive: -0.048 | inactive: -0.006 | active: -0.26 | inactive: 0.01 | inactive: 0.13 | inactive: 0.008 | inactive: -0.015 | inactive: 0.08 | inactive: 0.163 |
| ABRAXAS2 (UniProt Q15018) | inactive: 0.037 | inactive: 0.023 | inactive: 0.01 | inactive: 0.018 | inactive: -0.028 | inactive: 0.012 | inactive: 0.004 | inactive: -0.005 | inactive: -0.005 | inactive: -0.02 | inactive: 0.004 | inactive: 0.007 | inactive: 0.066 | inactive: 0.079 | inactive: 0.006 | inactive: -0.026 | inactive: -0.007 | inactive: -0.018 | inactive: 0.044 | inactive: -0.037 |
| AAAS (UniProt Q9NRG9) | inactive: 0.009 | inactive: -0.064 | inactive: -0.014 | inactive: -0.001 | inactive: 0.028 | inactive: 0.028 | inactive: -0.197 | inactive: 0.041 | inactive: -0.028 | inactive: -0.038 | inactive: -0.005 | inactive: -0.021 | inactive: -0.044 | inactive: 0.068 | inactive: -0.008 | inactive: -0.024 | inactive: -0.021 | inactive: -0.005 | inactive: 0.006 | inactive: -0.012 |
| ACIN1 isoform 5 (UniProt Q9UKV3) | inactive: -0.038 | inactive: 0.039 | inactive: -0.034 | inactive: -0.009 | inactive: 0.053 | inactive: -0.004 | inactive: -0.01 | inactive: 0.032 | inactive: -0.003 | inactive: 0.001 | inactive: 0.012 | inactive: -0.024 | inactive: 0.034 | inactive: 0.022 | inactive: -0.002 | inactive: -0.003 | inactive: 0.003 | inactive: 0.01 | inactive: -0.013 | inactive: 0.002 |
| ABHD17B (UniProt Q5VST6) | inactive: 0 | inactive: -0.016 | inactive: -0.003 | inactive: 0.064 | inactive: -0.099 | inactive: 0.059 | active: -0.642 | inactive: 0.06 | inactive: -0.011 | inactive: 0.043 | inactive: 0.075 | inactive: -0.076 | inactive: -0.051 | inactive: 0.01 | inactive: 0.026 | inactive: -0.012 | active: -0.513 | inactive: -0.026 | inactive: 0.01 | inactive: 0.183 |
| AAGAB (UniProt Q6PD74) | inactive: -0.015 | inactive: -0.06 | inactive: 0.02 | inactive: -0.027 | inactive: -0.025 | inactive: 0.034 | inactive: 0.039 | inactive: -0.016 | inactive: -0.045 | inactive: 0.013 | inactive: 0.028 | inactive: -0.029 | inactive: -0.101 | inactive: -0.017 | inactive: -0.048 | inactive: 0.053 | inactive: -0.04 | inactive: 0.026 | inactive: -0.005 | inactive: 0.014 |
| AAK1, A0A096LP25 | inactive: 0.032 | inactive: -0.003 | inactive: 0.447 | inactive: 0.015 | inactive: 0.327 | inactive: -0.167 | inactive: -0.197 | inactive: -0.018 | inactive: -0.05 | inactive: -0.012 | inactive: -0.078 | inactive: 0 | inactive: 0.232 | inactive: 0.349 | inactive: -0.019 | inactive: 0.316 | inactive: 0.157 | inactive: -0.037 | inactive: 0.047 | inactive: -0.076 |
| ABCF1 (UniProt Q8NE71) | inactive: -0.003 | inactive: -0.009 | inactive: 0.006 | inactive: 0.001 | inactive: -0.011 | inactive: -0.012 | inactive: 0.053 | inactive: 0.009 | inactive: 0.002 | inactive: -0.023 | inactive: -0.012 | inactive: 0.002 | inactive: -0.018 | inactive: -0.023 | inactive: 0.008 | inactive: -0.085 | inactive: -0.015 | inactive: 0.015 | inactive: -0.033 | inactive: 0.02 |

Some of the entries above, reformatted.
Target,log2 fold change (alvocidib),log2 fold change (Tubastatin A),log2 fold change [1],log2 fold change (defactinib),log2 fold change [2],log2 fold change (encorafenib),log2 fold change [3],log2 fold change (alisertib),log2 fold change [4],log2 fold change (gefitinib),log2 fold change (lapatinib),log2 fold change (pictilisib),log2 fold change (crizotinib),log2 fold change [5],log2 fold change (duvelisib),log2 fold change (gandotinib),log2 fold change (tozasertib),log2 fold change (doramapimod),log2 fold change (bafetinib),log2 fold change [6]
ACIN1 isoform 5 (UniProt Q9UKV3),inactive: -0.038,inactive: 0.039,inactive: -0.034,inactive: -0.009,inactive: 0.053,inactive: -0.004,inactive: -0.01,inactive: 0.032,inactive: -0.003,inactive: 0.001,inactive: 0.012,inactive: -0.024,inactive: 0.034,inactive: 0.022,inactive: -0.002,inactive: -0.003,inactive: 0.003,inactive: 0.01,inactive: -0.013,inactive: 0.002
"AAK1, A0A096LP25",inactive: 0.032,inactive: -0.003,inactive: 0.447,inactive: 0.015,inactive: 0.327,inactive: -0.167,inactive: -0.197,inactive: -0.018,inactive: -0.05,inactive: -0.012,inactive: -0.078,inactive: 0,inactive: 0.232,inactive: 0.349,inactive: -0.019,inactive: 0.316,inactive: 0.157,inactive: -0.037,inactive: 0.047,inactive: -0.076

Reference: the supplement of paper PMC10849652
